Test results from the supplement of paper PMC12009310.
Counter-ions that a name gives are not always drawn. ± gives the standard deviation of the averaged measurements. Some of the results follow. Plates or batches differ in their baseline, so values are only roughly comparable.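 The cells are a mouse kidney inner medullary collecting duct line, silenced either for the ciliary gene Rpgrip1l or with a non-targeting control siRNA.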

The molecules below were run on mIMCD3 (assay: robust z score of cilia incidence (% cells with single cilium) vs plate controls; higher = more ciliated cells (rescue of cilia loss)). Conditions: 10 µM; 48 h; siRNA: siRpgrip1l.

Row | Compound | robust z score of cilia incidence
1 | COc1ccc2[nH]c(I)c(CCNC(C)=O)c2c1 [2-Iodomelatonin] | -4.59 ± 2.8
2 | O=C1C(SCCO)=C(SCCO)C(=O)c2ccccc21 | -455 ± 270
3 | Cn1ccc2cc(NC(=O)Nc3cccnc3)ccc21 | -5.87 ± 1.4
4 | COC(=O)C1=C(C)NC(C)=C(C(=O)OC(C)C)C1c1cccc2nonc12 (stereo not drawn) [Isradipine] | -15.8 ± 8.4
5 | CS(=O)(=O)CCNCc1nc(-c2ccc3ncnc(Nc4ccc(OCc5cccc(F)c5)c(Cl)c4)c3c2)cs1 | -47.4 ± 1.5
6 | O=C(Nc1ccccc1)N[C@@H]1C[C@@H](C(=O)O)Nc2cc(Cl)cc(Cl)c21 | -3.73 ± 2.1
7 | COc1ccc2c(c1)c(CC(=O)O)c(C)n2C(=O)c1ccc(Cl)cc1 [Indomethacin] | -11.2 ± 6.5
8 | CNc1cc(OC)c(C(=O)NC2CCN(Cc3ccccc3)C2C)cc1Cl (stereo not drawn) [Nemonapride] | -119 ± 110
9 | Nc1nc2c(ncn2COCCO)c(=O)[nH]1 [Acyclovir] | -18.9 ± 1.9
10 | Cc1sc(N)c(C(=O)c2cccc(C(F)(F)F)c2)c1C | -15.4 ± 5.1
11 | CC(C)n1nnc2cc(C(=O)O)ccc21 | -8.42 ± 4.3
12 | CC(=Cc1ccc(C(=O)O)cc1)c1ccc2c(c1)C(C)(C)CCC2(C)C | -20.2 ± 2.7
13 | COc1cc(/C=C(\C#N)C(N)=O)cc(CSc2nc3ccccc3s2)c1O | -13.2 ± 9.9
14 | CC(C)(C)NC[C@H](O)COc1nsnc1N1CCOCC1 [(S)-Timolol maleate] | -7.04 ± 5.3
15 | Nc1nnc(Sc2ncc([N+](=O)[O-])s2)s1 | -8.11 ± 0.98
16 | Cc1ccccc1C(=O)c1ccc(Nc2ccc(Br)cc2N)cc1Cl | -27 ± 2.4
17 | COc1ccc(CCN(C)CCc2ccc(OC)c(OC)c2)cc1OC [YS-035 hydrochloride] | -8.64 ± 9.2
18 | C=C1/C(=C\C=C2/CCC[C@]3(C)[C@@H]([C@H](C)/C=C/[C@@H](O)C4CC4)CC[C@@H]23)C[C@@H](O)C[C@@H]1O [Calcipotriol] | -20.9 ± 5.3
19 | CC(=N)NCCCC[C@H](N)C(=O)O [L-NIL hydrochloride] | -13.6 ± 0.83

3 structures out of the list, sorted by SMILES length, low to high:
Row | Compound | robust z score of cilia incidence
2 | O=C1C(SCCO)=C(SCCO)C(=O)c2ccccc21 | -455 ± 270
7 | COc1ccc2c(c1)c(CC(=O)O)c(C)n2C(=O)c1ccc(Cl)cc1 [Indomethacin] | -11.2 ± 6.5
18 | C=C1/C(=C\C=C2/CCC[C@]3(C)[C@@H]([C@H](C)/C=C/[C@@H](O)C4CC4)CC[C@@H]23)C[C@@H](O)C[C@@H]1O [Calcipotriol] | -20.9 ± 5.3

(more compounds)

Row | Compound | robust z score of cilia incidence
20 | Clc1cccc(Nc2nnc(-c3ccccc3)c3ccccc23)c1 | -18.9 ± 4.7
21 | CCC(C)N(C)C(=O)c1cc2ccccc2c(-c2ccccc2Cl)n1 (stereo not drawn) | -14.32 ± 0.062
22 | CCOc1ccccc1OC(c1ccccc1)C1CNCCO1 (stereo not drawn) [Reboxetine mesylate] | -15.7 ± 15
23 | Cn1cccc1/C=C1\C(=O)NC(=O)c2ccccc21 | -12.7 ± 2.9
24 | N=C(N)N/N=C/c1c(Cl)cccc1Cl [Guanabenz acetate] | -8.07 ± 1.3
25 | COc1ccc(-c2nc(-c3ccc(-c4cccc(Cl)c4)o3)[nH]c2-c2ccc(OC)cc2)cc1 [Neurodazine] | -18.8 ± 14
26 | COc1cc2c(cc1OC)-c1c/c(=N\c3c(C)cc(C)cc3C)n(C)c(=O)n1CC2 [Trequinsin hydrochloride] | -30.8 ± 17
27 | O=C(c1ccc(Nc2nccc(-c3cc4ccccc4s3)n2)cc1)N1CCC(N2CCCC2)CC1 | -57.3 ± 7.8
28 | CC(=O)NNC(=O)N1Cc2ccccc2Oc2ccc(Cl)cc21 | -15.6 ± 0.49
29 | NS(=O)(=O)c1cc2c(cc1Cl)NC(C1CC3C=CC1C3)NS2(=O)=O (stereo not drawn) [Cyclothiazide] | -8.99 ± 0.23
30 | Cc1ccc(NC(=O)C(C)C)cc1C1CCN(Cc2ccc(Oc3ccc(F)c(F)c3)cc2)CC1 | -25.2 ± 3.4
31 | O=c1[nH]c2cc(C(F)(F)F)c(N3CCOCC3)cc2n(CP(=O)(O)O)c1=O | -8.13 ± 5.7
32 | CC1(C)CC(=O)C(C2C3=C(CC(C)(C)CC3=O)Oc3ccccc32)C(=O)C1 (stereo not drawn) | -7.12 ± 0.75
33 | Oc1ccc(/C=C/c2cc(O)cc(O)c2)cc1 [Resveratrol] | -24.2 ± 7
34 | CN1c2cc3c(cc2N=C(c2ccc(C(=O)O)cc2)c2ccccc21)C(C)(C)CCC3(C)C | -58.8 ± 11
35 | Cc1cccc(C#Cc2ccccc2)n1 [MPEP hydrochloride] | -16.9 ± 7.1
36 | COC(=O)c1c(-c2cc(OC)c(OC)c(OC)c2)c2ccnc(OCc3ncccn3)c2c(=O)n1Cc1ccnc(C)c1 [T 0156 hydrochloride] | -18.9 ± 3.1
37 | COc1ccc(Cl)cc1C(=O)NCCc1ccc(S(=O)(=O)NC(=O)NC2CCCCC2)cc1 [Glibenclamide] | -6.18 ± 0.27
38 | CC(O)(C(=O)Nc1ccc(S(=O)(=O)c2ccccc2)cc1)C(F)(F)F (stereo not drawn) | -15.9 ± 5.7
